According to article PMC7196576, “Structural changes of a bacteriophage upon DNA packaging and maturation” (Protein & Cell, 2020):
These are yes or no findings as the source states them, for the method shown. Some results given as binding are weak or reduced against the parent protein; the word gives no strength.

Chains of the proteins cited; added tags and fusions are not shown.
UniProt P19726: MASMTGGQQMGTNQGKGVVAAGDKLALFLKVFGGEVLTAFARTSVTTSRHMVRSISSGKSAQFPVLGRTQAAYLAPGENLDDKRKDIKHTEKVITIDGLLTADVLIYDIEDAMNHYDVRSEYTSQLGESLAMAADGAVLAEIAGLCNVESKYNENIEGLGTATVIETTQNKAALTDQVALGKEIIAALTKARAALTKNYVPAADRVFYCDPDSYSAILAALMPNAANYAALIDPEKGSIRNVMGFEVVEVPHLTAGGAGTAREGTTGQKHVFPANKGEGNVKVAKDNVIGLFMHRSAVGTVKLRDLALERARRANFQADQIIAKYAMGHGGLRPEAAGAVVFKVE

T1: portal protein gp8 of bacteriophage T7 (Escherichia coli bacteriophage T7) (UniProt P03728)
T1 sequence: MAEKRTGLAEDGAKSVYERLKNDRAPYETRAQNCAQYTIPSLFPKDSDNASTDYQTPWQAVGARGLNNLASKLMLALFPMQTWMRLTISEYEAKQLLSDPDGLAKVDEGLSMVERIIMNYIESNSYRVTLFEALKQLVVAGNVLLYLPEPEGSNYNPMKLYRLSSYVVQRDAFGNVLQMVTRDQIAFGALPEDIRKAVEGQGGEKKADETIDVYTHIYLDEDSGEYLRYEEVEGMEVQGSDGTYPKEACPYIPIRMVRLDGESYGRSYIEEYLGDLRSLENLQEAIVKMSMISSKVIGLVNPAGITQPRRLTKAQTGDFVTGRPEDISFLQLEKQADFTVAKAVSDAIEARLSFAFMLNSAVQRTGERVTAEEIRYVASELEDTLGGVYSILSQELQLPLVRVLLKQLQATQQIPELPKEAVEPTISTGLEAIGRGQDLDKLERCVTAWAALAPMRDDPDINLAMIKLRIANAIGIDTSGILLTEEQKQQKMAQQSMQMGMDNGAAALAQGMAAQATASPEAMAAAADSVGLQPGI

T2: adaptor protein gp11 of bacteriophage T7 (Escherichia coli bacteriophage T7) (UniProt P03746)
T2 sequence: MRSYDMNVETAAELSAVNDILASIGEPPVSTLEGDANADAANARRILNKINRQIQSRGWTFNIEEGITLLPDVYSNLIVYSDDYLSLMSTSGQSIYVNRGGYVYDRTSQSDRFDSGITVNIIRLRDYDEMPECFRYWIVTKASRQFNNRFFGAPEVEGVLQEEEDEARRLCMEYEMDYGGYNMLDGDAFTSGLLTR


How the values were obtained:
[1] = molecular target: capsid shell protein gp10 of bacteriophage T7 (Escherichia coli bacteriophage T7) (UniProt P19726); assay: cryo-EM structure; DNA-free T7 capsid II particles (DNA packaging intermediate) purified from cells; asymmetric reconstruction about 10 Å, local reconstruction of the portal 4.9 Å
[2] = molecular target: capsid shell protein gp10 of bacteriophage T7 (Escherichia coli bacteriophage T7) (UniProt P19726); assay: cryo-EM structure; mature T7 phage purified from cells; icosahedral, symmetry-mismatch and local reconstructions (shell 3.5 Å, asymmetric 7 Å, portal-tail complex 3.8 Å, core 6.0 Å)
[3] = molecular target: capsid shell protein gp10 of bacteriophage T7 (Escherichia coli bacteriophage T7) (UniProt P19726); assay: as above; remark: listed apart in the source
[4] = molecular target: capsid shell protein gp10 of bacteriophage T7 (Escherichia coli bacteriophage T7) (UniProt P19726); assay: cryo-EM structure; DNA-free T7 capsid II particles (DNA packaging intermediate) purified from cells; asymmetric reconstruction about 10 Å, local reconstruction of the portal 4.9 Å; remark: listed apart in the source
[5] = molecular target: T1, portal protein gp8 of bacteriophage T7 (Escherichia coli bacteriophage T7); assay: cryo-EM structure; mature T7 phage purified from cells; icosahedral, symmetry-mismatch and local reconstructions (shell 3.5 Å, asymmetric 7 Å, portal-tail complex 3.8 Å, core 6.0 Å)
[6] = molecular target: T2, adaptor protein gp11 of bacteriophage T7 (Escherichia coli bacteriophage T7); assay: as above

| Molecule | binding [5] | binding [6] | further results |
| --- | --- | --- | --- |
| capsid shell protein gp10 of bacteriophage T7 (from UniProt P19726 1-345) | – | – | binding [1]: binds; binding [2]: binds |
| portal protein gp8 of bacteriophage T7 (natural protein, Escherichia coli bacteriophage T7, UniProt P03728 1-536, looked up, portal protein gp8, Escherichia coli bacteriophage T7; domains clip (294-334), stem (335-356 and 269-293), wing (1-268, 357-427), crown (428-492), C-terminal helical barrel; Native protein in the virion; dodecamer at one vertex; The C-terminal barrel is not seen in capsid II; also called T7 portal; source: in mature T7 phage and T7 capsid II particles purified from cells; copies: 12) MAEKRTGLAEDGAKSVYERLKNDRAPYETRAQNCAQYTIPSLFPKDSDNASTDYQTPWQAVGARGLNNLASKLMLALFPMQTWMRLTISEYEAKQLLSDPDGLAKVDEGLSMVERIIMNYIESNSYRVTLFEALKQLVVAGNVLLYLPEPEGSNYNPMKLYRLSSYVVQRDAFGNVLQMVTRDQIAFGALPEDIRKAVEGQGGEKKADETIDVYTHIYLDEDSGEYLRYEEVEGMEVQGSDGTYPKEACPYIPIRMVRLDGESYGRSYIEEYLGDLRSLENLQEAIVKMSMISSKVIGLVNPAGITQPRRLTKAQTGDFVTGRPEDISFLQLEKQADFTVAKAVSDAIEARLSFAFMLNSAVQRTGERVTAEEIRYVASELEDTLGGVYSILSQELQLPLVRVLLKQLQATQQIPELPKEAVEPTISTGLEAIGRGQDLDKLERCVTAWAALAPMRDDPDINLAMIKLRIANAIGIDTSGILLTEEQKQQKMAQQSMQMGMDNGAAALAQGMAAQATASPEAMAAAADSVGLQPGI | – | – | binding [3]: binds; binding [4]: binds |
| adaptor protein gp11 of bacteriophage T7 (natural protein, Escherichia coli bacteriophage T7, UniProt P03746 1-196, looked up, adaptor protein gp11, Escherichia coli bacteriophage T7; Native protein in the virion; dodecameric ring; also called tail adaptor; source: in mature T7 phage purified from cells; copies: 12) MRSYDMNVETAAELSAVNDILASIGEPPVSTLEGDANADAANARRILNKINRQIQSRGWTFNIEEGITLLPDVYSNLIVYSDDYLSLMSTSGQSIYVNRGGYVYDRTSQSDRFDSGITVNIIRLRDYDEMPECFRYWIVTKASRQFNNRFFGAPEVEGVLQEEEDEARRLCMEYEMDYGGYNMLDGDAFTSGLLTR | binds | – | – |
| nozzle protein gp12 of bacteriophage T7 (natural protein, Escherichia coli bacteriophage T7, UniProt P03747 1-794, looked up, nozzle protein gp12, Escherichia coli bacteriophage T7; Native protein in the virion; hexameric tube; source: in mature T7 phage purified from cells) MALISQSIKNLKGGISQQPDILRYPDQGSRQVNGWSSETEGLQKRPPLVFLNTLGDNGALGQAPYIHLINRDEHEQYYAVFTGSGIRVFDLSGNEKQVRYPNGSNYIKTANPRNDLRMVTVADYTFIVNRNVVAQKNTKSVNLPNYNPNQDGLINVRGGQYGRELIVHINGKDVAKYKIPDGSQPEHVNNTDAQWLAEELAKQMRTNLSDWTVNVGQGFIHVTAPSGQQIDSFTTKDGYADQLINPVTHYAQSFSKLPPNAPNGYMVKIVGDASKSADQYYVRYDAERKVWTETLGWNTEDQVLWETMPHALVRAADGNFDFKWLEWSPKSCGDVDTNPWPSFVGSSINDVFFFRNRLGFLSGENIILSRTAKYFNFYPASIANLSDDDPIDVAVSTNRIAILKYAVPFSEELLIWSDEAQFVLTASGTLTSKSVELNLTTQFDVQDRARPFGIGRNVYFASPRSSFTSIHRYYAVQDVSSVKNAEDITSHVPNYIPNGVFSICGSGTENFCSVLSHGDPSKIFMYKFLYLNEELRQQSWSHWDFGENVQVLACQSISSDMYVILRNEFNTFLARISFTKNAIDLQGEPYRAFMDMKIRYTIPSGTYNDDTFTTSIHIPTIYGANFGRGKITVLEPDGKITVFEQPTAGWNSDPWLRLSGNLEGRMVYIGFNINFVYEFSKFLIKQTADDGSTSTEDIGRLQLRRAWVNYENSGTFDIYVENQSSNWKYTMAGARLGSNTLRAGRLNLGTGQYRFPVVGNAKFNTVYILSDETTPLNIIGCGWEGNYLRRSSGI | – | binds | – |
| tail fiber gp17 of bacteriophage T7 (natural protein, Escherichia coli bacteriophage T7, UniProt P03748 1-553, looked up, tail fiber protein gp17, Escherichia coli bacteriophage T7; only the N-terminus (a jelly-roll barrel and a 22-residue alpha-helix) was resolved; Native protein in the virion; six trimers a phage; The distal parts of the fibers were too flexible to be resolved; source: in mature T7 phage purified from cells) MANVIKTVLTYQLDGSNRDFNIPFEYLARKFVVVTLIGVDRKVLTINTDYRFATRTTISLTKAWGPADGYTTIELRRVTSTTDRLVDFTDGSILRAYDLNVAQIQTMHVAEEARDLTTDTIGVNNDGHLDARGRRIVNLANAVDDRDAVPFGQLKTMNQNSWQARNEALQFRNEAETFRNQAEGFKNESSTNATNTKQWRDETKGFRDEAKRFKNTAGQYATSAGNSASAAHQSEVNAENSATASANSAHLAEQQADRAEREADKLENYNGLAGAIDKVDGTNVYWKGNIHANGRLYMTTNGFDCGQYQQFFGGVTNRYSVMEWGDENGWLMYVQRREWTTAIGGNIQLVVNGQIITQGGAMTGQLKLQNGHVLQLESASDKAHYILSKDGNRNNWYIGRGSDNNNDCTFHSYVHGTTLTLKQDYAVVNKHFHVGQAVVATDGNIQGTKWGGKWLDAYLRDSFVAKSKAWTQVWSGSAGGGVSVTVSQDLRFRNIWIKCANNSWNFFRTGPDGIYFIASDGGWLRFQIHSNGLGFKNIADSRSVPNAIMVENE | binds | binds | – |
